Experimental data: PubChem BioAssay AID1259405 (NCATS, 2018)
Aim: 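Silenced genes that increase secreted GFP made by CHO cells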 (primary screen). System: Chinese hamster CHO-K1 ovary cells with stable secreted eGFP expression. Reagent: single siRNA against mouse genes, 0.8 pmol siRNA per well (2 µl of 400 nM stock). Timing: 3 days. Measurement: 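Percent of the per-plate non-targeting control median for intracellular GFP per well by laser scanning cytometry and for cell viability by ATP luminescence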. Scale: GFP, % of control: higher = more GFP per well, higher productivity; viability (ATP), % of control: higher = more viable cells (more ATP). Rule for the call: 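a knock-down is called active if GFP reaches 120% or more of non-targeting control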.
Shown is one part, drawn at random, of about 50,000 reagents. About 4,000 of them (8%) were called active. 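Mouse siRNA library applied to hamster cells; one well for each siRNA.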 Reagents against one gene are numbered here.

For Pip5k1a (phosphatidylinositol-4-phosphate 5-kinase, type 1 alpha) the deposit lists GFP, % of control 58.8; viability (ATP), % of control 57.8; inactive.
With knock-down of Parl (presenilin associated, rhomboid-like) #1, the record shows GFP, % of control 109; viability (ATP), % of control 54.5; inactive.
Parl (presenilin associated, rhomboid-like) #2 scored GFP, % of control 66.6; viability (ATP), % of control 75.9; inactive.
After knock-down of Parl (presenilin associated, rhomboid-like) #3, the screen gave GFP, % of control 68.9; viability (ATP), % of control 57.8; inactive.
Against Drc2 (dynein regulatory complex subunit 2) #1 the deposit lists GFP, % of control 64.1; viability (ATP), % of control 72.5; inactive.
Knock-down of Drc2 (dynein regulatory complex subunit 2) #2 came out at: GFP, % of control 150; viability (ATP), % of control 105; active.
Drc2 (dynein regulatory complex subunit 2) #3 showed GFP, % of control 71.4; viability (ATP), % of control 76.5; inactive.
Against Hnrnpdl (heterogeneous nuclear ribonucleoprotein D-like) #1 the deposit lists GFP, % of control 75.3; viability (ATP), % of control 94.7; inactive.
Depletion of Hnrnpdl (heterogeneous nuclear ribonucleoprotein D-like) #2 came out at: GFP, % of control 76.4; viability (ATP), % of control 87.3; inactive.
Depletion of Hnrnpdl (heterogeneous nuclear ribonucleoprotein D-like) #3 came out at: GFP, % of control 59.6; viability (ATP), % of control 32.6; inactive.
Knock-down of Spire1 (spire type actin nucleation factor 1) #1 resulted in: GFP, % of control 75.1; viability (ATP), % of control 35.6; inactive.
After knock-down of Spire1 (spire type actin nucleation factor 1) #2 the results were GFP, % of control 38; viability (ATP), % of control 43.3; inactive.
With knock-down of Spire1 (spire type actin nucleation factor 1) #3, the screen gave GFP, % of control 23.4; viability (ATP), % of control 33.8; inactive.

Reformatted: results already given.
target gene,siRNA no.,"GFP, % of control","viability (ATP), % of control",outcome
Hnrnpdl (heterogeneous nuclear ribonucleoprotein D-like),2,76.4,87.3,inactive
Hnrnpdl (heterogeneous nuclear ribonucleoprotein D-like),3,59.6,32.6,inactive
Spire1 (spire type actin nucleation factor 1),1,75.1,35.6,inactive

The listing continues:
After knock-down of Zbtb1 (zinc finger and BTB domain containing 1) #1 the results were GFP, % of control 101; viability (ATP), % of control 108; inactive.
After knock-down of Zbtb1 (zinc finger and BTB domain containing 1) #2, the screen gave GFP, % of control 83.4; viability (ATP), % of control 66.8; inactive.
After knock-down of Zbtb1 (zinc finger and BTB domain containing 1) #3 the results were GFP, % of control 105; viability (ATP), % of control 84.9; inactive.
Against Bag3 (BCL2-associated athanogene 3) #1, the values are GFP, % of control 81.5; viability (ATP), % of control 53.4; inactive.
Bag3 (BCL2-associated athanogene 3) #2 scored GFP, % of control 120; viability (ATP), % of control 83.6; inactive.
Bag3 (BCL2-associated athanogene 3) #3 showed GFP, % of control 105; viability (ATP), % of control 103; inactive.
Against Gdi2 (GDP dissociation inhibitor 2) #1, the entry reads GFP, % of control 59.3; viability (ATP), % of control 74.7; inactive.
For Gdi2 (GDP dissociation inhibitor 2) #2, the values are GFP, % of control 77.9; viability (ATP), % of control 95.2; inactive.
With knock-down of Gdi2 (GDP dissociation inhibitor 2) #3, the record shows GFP, % of control 73.1; viability (ATP), % of control 92.8; inactive.
After knock-down of Gdi2 (GDP dissociation inhibitor 2) #4, the screen gave GFP, % of control 12.5; viability (ATP), % of control 21.5; inactive.
Against Gdi2 (GDP dissociation inhibitor 2) #5, the values are GFP, % of control 29.4; viability (ATP), % of control 35.3; inactive.
Silencing of Gdi2 (GDP dissociation inhibitor 2) #6 gave: GFP, % of control 145; viability (ATP), % of control 94.4; active.
Silencing of Ppid (peptidylprolyl isomerase D (cyclophilin D)) #1 came out at: GFP, % of control 118; viability (ATP), % of control 131; inactive.
For Ppid (peptidylprolyl isomerase D (cyclophilin D)) #2, the values are GFP, % of control 67.4; viability (ATP), % of control 50.2; inactive.
Ppid (peptidylprolyl isomerase D (cyclophilin D)) #3 scored GFP, % of control 86.8; viability (ATP), % of control 73.1; inactive.
